doi:10.1101/2024.02.17.580811
These are yes or no findings as the source states them, for the method shown. Binding seen in cells or lysates may run through a third protein. A yes stands for co-enrichment or nearness to the bait. Other partners may have been found. No binding means not detected with the bait. Sequences can lack the tags named with a protein.

Protein sequences, listed by entry. Tags and fused reporters are not part of them.
UniProt P24782: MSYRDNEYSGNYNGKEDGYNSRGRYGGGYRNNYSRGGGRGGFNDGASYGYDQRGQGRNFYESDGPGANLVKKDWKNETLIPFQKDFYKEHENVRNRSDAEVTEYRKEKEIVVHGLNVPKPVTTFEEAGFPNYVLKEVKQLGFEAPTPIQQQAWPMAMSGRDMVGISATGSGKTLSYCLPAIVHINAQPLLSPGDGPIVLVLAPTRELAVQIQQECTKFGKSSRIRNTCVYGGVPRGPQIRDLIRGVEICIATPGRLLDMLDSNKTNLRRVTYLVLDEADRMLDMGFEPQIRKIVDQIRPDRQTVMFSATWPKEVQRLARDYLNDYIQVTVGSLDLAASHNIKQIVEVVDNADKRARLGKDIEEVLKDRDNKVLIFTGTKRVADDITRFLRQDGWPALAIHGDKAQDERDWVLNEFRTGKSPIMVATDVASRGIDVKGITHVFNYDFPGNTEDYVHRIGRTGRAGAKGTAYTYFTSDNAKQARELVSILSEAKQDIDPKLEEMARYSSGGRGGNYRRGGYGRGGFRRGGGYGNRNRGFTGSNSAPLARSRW

T1: Srp2-HTP (S. pombe) (UniProt P78814)
T1 sequence: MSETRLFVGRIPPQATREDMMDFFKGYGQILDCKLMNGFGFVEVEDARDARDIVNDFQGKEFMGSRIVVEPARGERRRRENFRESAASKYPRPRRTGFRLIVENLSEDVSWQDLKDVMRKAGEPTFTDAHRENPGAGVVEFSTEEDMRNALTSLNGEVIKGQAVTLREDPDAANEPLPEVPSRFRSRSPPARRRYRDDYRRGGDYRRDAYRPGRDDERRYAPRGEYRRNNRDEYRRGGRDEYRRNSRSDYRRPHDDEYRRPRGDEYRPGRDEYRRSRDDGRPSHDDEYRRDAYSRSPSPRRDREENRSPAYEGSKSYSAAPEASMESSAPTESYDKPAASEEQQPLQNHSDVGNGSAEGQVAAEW


Experiments:
Dbp2-HTP (S. pombe) = Dbp2-HTP (S. pombe) (UniProt P24782); test: affinity purification with mass spectrometry
Srp2-HTP (S. pombe) = target: T1, Srp2-HTP (S. pombe); test: affinity purification with mass spectrometry

| Binder | binding (Dbp2-HTP (S. pombe)) | binding (Srp2-HTP (S. pombe)) |
| --- | --- | --- |
| Rnh1 (enzyme, UniProt Q9UST8 1-264) MGGNKRAYYAVARGRNTGIYSTWDEASDQVKGYGGNRYKKFDSYEAAQEFCRTEGSRYSSSSGPYRRSTTSYGYSPYSSSSSNYSARHSDKYRKKISRSYSTEKDIEIFSNDTHEKSIACSDRQVVYADGSSLRNGKKGAVAGCGVFFGNDDPRNISVPLAGEEQTNNRAELQAIILALENTSGDLTIRSDSNYSIKSLTTWLPKWKKNDFKTSNSQPVKNLDLINRASDLMSDRNVSLEYVKGHSTDYGNQQADMLARRGASE | no binding | no binding |
| Rec12 (enzyme, UniProt P40384 1-345) MNSNDKKKVVRSWIEQFVHDFVEQLSKPTKDSVNVALKRRKHNSWNGSLDSKANERQKVKVFSFPRNETTIAQLFRVLDCVHEAVISDTVITKRDIYYRDVDLFKRQTVVDELLGDISNTIGCSRSDLNVEASAKGLVFGSIHIALENGTVITATKPLLISHHRISSITSTAKWVLVIEKEAVFQTLTEEALADTIIVTAKGFPDLMTRKFLVKLAKALPDAKFFGIFDWDPHGLCIYSCFKYGSNAYSHEPHSQLRNLQLLGPLYEDIFNKNQEFSLKLNKRDIKMITTLLQFEGFQKEPVVREQLQRMLFIQKKAEIQAILEFPSWIKGKLADADKSGKHSVR | no binding | no binding |
| Top1 (enzyme, UniProt P07799 1-814) MSSSDSDSVSLSIRRRQRRGSSKRISMKESDEESDSSENHPLSESLNKKSKSESDEDDIPIRKRRASSKKNMSNSSSKKRAKVMGNGGLKNGKKTAVVKEEEDFNEIAKPSPKHKRVSKANGSKNGAKSAVKKEESDTDDSVPLRAVSTVSLTPYKSELPSGASTTQNRSPNDEEDEDEDYKWWTSENIDDTQKWTTLEHNGVIFAPPYEPLPKNVKLIYDGNPVNLPPEAEEVAGFYAAMLETDHAKNPVFQDNFFRDFLKVCDECNFNHNIKEFSKCDFTQMFHHFEQKREEKKSMPKEQKKAIKQKKDEEEEKYKWCILDGRKEKVGNFRIEPPGLFRGRGSHPKTGSLKRRVYPEQITINIGEGVPVPEPLPGHQWAEVKHDNTVTWLATWHENINNNVKYVFLAAGSSLKGQSDLKKYEKSRKLKDYIDDIRKGYRKDLKSELTVERQRGTAMYLIDVFALRAGNEKGEDEADTVGCCSLRYEHVTLKPPRTVVFDFLGKDSIRYYNEVEVDPQVFKNLKIFKRPPKKEGDLIFDRLSTNSLNKYLTSLMDGLSAKVFRTYNASYTMAEELKKMPKNLTLADKILFYNRANRTVAILCNHQRSVTKNHDVQMERFAERIKALQYQRMRLRKMMLNLEPKLAKSKPELLAKEEGITDSWIVKHHETLYELEKEKIKKKFDRENEKLAAEDPKSVLPESELEVRLKAADELKKALDAELKSKKVDPGRSSMEQLEKRLNKLNERINVMRTQMIDKDENKTTALGTSKINYIDPRLTYSFSKREDVPIEKLFSKTIRDKFNWAADTPPDWKW | no binding | no binding |
| Top2 (enzyme, UniProt P08096 1-1485) MSIDADFSDYEDEASGDENVLPNTTTKRKASTTSSKSRAKKASTPDLRQTSLTSMTASEQIPLVTNNGNGNSNVSTQYQRLTPREHVLRRPDTYIGSIEPTTSEMWVFDSEKNKLDYKAVTYVPGLYKIFDEIIVNAADNKVRDPNMNTLKVTLDPEANVISIYNNGKGIPIEIHDKEKIYIPELIFGNLLTSSNYDDNQKKVTGGRNGYGAKLCNIFSTEFVVETADKERMKKYKQTWYDNMSRKSEPVITSLKKPDEYTKITFKPDLAKFGMDKIDDDMVSIIKRRIYDMAGTVRETKVYLNNERISISGFKKYVEMYLASDTKPDEEPPRVIYEHVNDRWDVAFAVSDGQFKQVSFVNNISTIRGGTHVNYVANKIVDAIDEVVKKENKKAPVKAFQIKNYVQVFVNCQIENPSFDSQTKETLTTKVSAFGSQCTLSDKFLKAIKKSSVVEEVLKFATAKADQQLSKGDGGLRSRITGLTKLEDANKAGTKESHKCVLILTEGDSAKSLAVSGLSVVGRDYYGVFPLRGKLLNVREASHSQILNNKEIQAIKKIMGFTHKKTYTDVKGLRYGHLMIMTDQDHDGSHIKGLIINYLESSYPSLLQIPGFLIQFITPIIKCTRGNQVQAFYTLPEYEYWKEANNNGRGWKIKYYKGLGTSDHDDMKSYFSDLDRHMKYFHAMQEKDAELIEMAFAKKKADVRKEWLRTYRPGIYMDYTQPQIPIDDFINRELIQFSMADNIRSIPSVVDGLKPGQRKVVYYCFKRNLVHETKVSRLAGYVASETAYHHGEVSMEQTIVNLAQNFVGSNNINLLMPNGQFGTRSEGGKNASASRYLNTALSPLARVLFNSNDDQLLNYQNDEGQWIEPEYYVPILPMVLVNGAEGIGTGWSTFIPNYNPKDITANLRHMLNGEPLEIMTPWYRGFRGSITKVAPDRYKISGIINQIGENKVEITELPIRFWTQDMKEYLEAGLVGTEKIRKFIVDYESHHGEGNVHFNVTLTEAGMKEALNESLEVKFKLSRTQATSNMIAFDASGRIKKYDSVEDILTEFYEVRLRTYQRRKEHMVNELEKRFDRFSNQARFIHMIIEGELVVSKKKKKDLIVELKEKKFQPISKPKKGHLVDLEVENALAEEEQSGDVSQDEDSDAYNYLLSMPLWSLTYERYVELLKKKDEVMAELDALIKKTPKELWLHDLDAFEHAWNKVMDDIQREMLEEEQSSRDFVNRTKKKPRGKSTGTRKPRAIAGSSSSTAVKKEASSESKPSTTNRKQQTLLEFAASKEPEKSSDINIVKTEDNSHGLSVEENRISKSPGLDSSDSGKSRKRSQSVDSEDAGSKKPVKKIAASASGRGRKTNKPVATTIFSSDDEDDLLPSSLKPSTITSTKASAKNKGKKASSVKKQSPEDDDDDFIIPGSSSTPKASSTNAEPPEDSDSPIRKRPTRRAAATVKTPIYVDPSFDSMDEPSMQDDSFIVDNDEDVDDYDESD | no binding | no binding |

Continued, values first:

| binding (Dbp2-HTP (S. pombe)) | binding (Srp2-HTP (S. pombe)) | Binder |
| --- | --- | --- |
| no binding | no binding | histone lysine acetyltransferase Rtt109 (enzyme, UniProt Q9Y7Y5 1-369) MPDLWSESILEGRKLSIYHLKSTLEKCPFLFGQSKKSKDFQFGSHLFLVEEQNVFIFGMECIVYEKNKEFIVFVSKADSTGFGSKGVSCNSLAFCCLVTLIDGLRKQGAENVTLTLFAIAQGQYLFPESVDNGQKHVLNDSGLLRWWVNCLEKLRKYYTDSEAPNDSEKQKNSTLLPKAYLFVPGLENIRSYLPNRHWIESNAITTGKAVEELPRFPDDPKCRYLCELQDEKSDMSVEEFWDTLTYRQECSSGKLVGFFTLQLQFYQTREFIAKDNFGDSGVMIPAKLYRVTYDTLLKHPFGSLSDAQSSTEKFLSNTLSAVQNLKDFHYKRYKLDICGLAKRDDRKNHNHSKPATQANILQPRKKVKK |
| no binding | no binding | Top3 (enzyme, UniProt O60126 1-622) MRVLCVAEKNSIAKSVASILGGGHVRRRDTRSKYVKNYDFSFNFGGNVGSSDVTMTSVSGHLTEASFPSEYSSWSSVPQDVLFDAQIITSVSKNAEVLADNIKKEARNAQYLYIWTDCDREGEHIGVEISNVARASNPSIQVIRADFNNLERSHIISAAKRPRDVSKNAADAVDARIELDFRLGAIFTRLQTIQLQKSFDILQNKIISYGPCQFPTLGFVVDRWQRVEDFVPETYWHLRFVDKRQGKTIQFNWERAKVFDRLTTMIILENCLECKTAKVVNITQKPKTKYKPLPLSTVELTKLGPKHLRISAKKTLELAENLYTNGFVSYPRTETDQFDSSMNLHAIIQKLTGAQEWDSYAEGLLAGDYRPPRKGKHNDRAHPPIHPVQMVHRSALPSQDHWKVYELITRRFLACCSDNAKGAETLVQVKMEEELFSKKGLLVTEKNYLEVYPYEKWESSDQLPEYRLHEEFQPHILDMMDSSTSSPSYITEPELIALMDANGIGTDATMAEHIEKVQEREYVIKRKKRGQGVTEFVPSSLGVALAKGYDEIGLEWSLTKPFLRKEMEVQLKNIENGQLNRNVLVHMILTQFRDVFHLTKQRFDCLKNSCRVYLMSHNEPQT |
